The source of these data is PubChem BioAssay AID485313 (National Center for Advancing Translational Sciences (NCATS), 2010).

Molecules are shown by their SMILES. Only a part is listed here, and it is no random draw. Calls of active or inactive are those of the source. Calls follow the shape of the dose curve; as a rule, active = well fitted activation curve with a large enough effect; inconclusive = small, poorly fitted or top-dose-only effect; inactive = no such curve, though single readings can be large or run the other way.
Potency is read from the fitted curve at half-maximal effect.

This assay in a line: qHTS Assay for NPC1 Promoter Activators. Also: nearly all actives have a fitted effect of over 60% in size. The following applies: Huh7 NPC1 promoter luciferase reporter, 24 h. From the text: NIH Chemical Genomics Center [NCGC] NIH Molecular Libraries Probe Production centers Network [MLPCN] MLPCN Grant: MH089375-01A1 Assay Submitter (PI): Yiannis A. Ioannou NCGC Assay Overview: Niemann Pick Type C (NPC) is a rare neurodegenerative lipidosis that is characterized by lipid storage in the endosomal/lysosomal system. Treatment modalities for this devastating disease are currently non-existent due to the severe obstacles associated with accessing the central nervous system with proteins or genes. The majority of mutations causing NPC disease are missense mutations that are distributed throughout the length of the NPC1 protein, with the most prevalent being the I1061T allele. Although NPC1 mutant proteins may be functional, they are typically trapped in the ER due to misfolding. […] We have developed and optimized a cell based luciferase reporter assay in 1536 well format for the identification of up-regulators of the mutant NPC1 promoter.
The NPC1 promoter is cloned in front of the luciferase reporter gene, therefore NPC promoter activation results in luciferase expression. Frozen stock of the NPC1 promoter transfected Huh7 cells were obtained from the laboratory of Dr. Yiannis Ioannou (The Mount Sinai School of Medicine, New York, NY). […] 7.#Read using the luminescence protocol on the ViewLux plate reader (Perkin Elmer).
(In general: In qHTS, concentration-response curves come from the screen itself.)
Consider `Cc1cc(=O)oc2cc(OCc3ccccc3)ccc12`, for which the Potency was active: 2 µM.
